Test results from PMC3610895.
These are yes or no findings as the source states them, for the method shown. Binding seen in cells or lysates may run through a third protein. A result given as binding can be weak or reduced; the word gives no strength. Values belong to the molecule of their own block, whether it stands above or below them.

Chains of the proteins cited; added tags and fusions are not shown. Lines headed by an entry give the natural chain unless they say otherwise; changes in a name come on top.
UniProt Q9VKV4: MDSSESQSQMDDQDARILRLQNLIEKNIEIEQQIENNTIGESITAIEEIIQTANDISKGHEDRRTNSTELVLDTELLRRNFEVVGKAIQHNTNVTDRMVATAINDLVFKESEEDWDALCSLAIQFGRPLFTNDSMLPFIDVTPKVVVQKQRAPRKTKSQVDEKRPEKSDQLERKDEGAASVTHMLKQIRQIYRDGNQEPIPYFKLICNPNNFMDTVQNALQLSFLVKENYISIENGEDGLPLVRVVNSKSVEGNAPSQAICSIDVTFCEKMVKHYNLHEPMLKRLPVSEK
UniProt Q9I7L4: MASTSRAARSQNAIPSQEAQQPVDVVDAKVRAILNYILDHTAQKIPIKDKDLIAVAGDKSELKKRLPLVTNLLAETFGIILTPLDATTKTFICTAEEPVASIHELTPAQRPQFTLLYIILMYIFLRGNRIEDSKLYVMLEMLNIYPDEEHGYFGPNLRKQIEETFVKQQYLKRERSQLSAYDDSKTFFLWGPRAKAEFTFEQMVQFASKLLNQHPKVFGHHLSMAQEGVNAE

Columns and labels:
[1] = molecular target: HA-tagged Nse4 (Drosophila melanogaster) (UniProt Q9VKV4); test: co-IP; HA-Nse4 and FLAG-Mage co-expressed in S2 cells; lysate in mild lysis buffer (50 mM Tris, 150 mM NaCl, 1% Triton X-100, pH 8.0); protein G agarose beads pre-bound with antibody, 1 h at 4°C, six washes; immunoblot
[2] = molecular target: FLAG-tagged Mage (Drosophila melanogaster) (UniProt Q9I7L4); test: as above
[3] = molecular target: maltose binding protein (MBP)-fused Mage (Drosophila melanogaster) (UniProt Q9I7L4); test: pull-down; MBP-Mage or MBP immobilized on amylose resin; 35S-labeled in vitro translated probe proteins; 20 mM Tris, 100 mM NaCl, 0.5 mM EDTA, 10% glycerol, 1% Tween-20, pH 7.6, 0.25% BSA, overnight at 4°C; six washes; SDS-PAGE and autoradiography; only the target purified

- binding [1]: binds
Molecule: FLAG-tagged Mage (from UniProt Q9I7L4)

- binding [2]: binds
Molecule: HA-tagged Nse4 (from UniProt Q9VKV4)

- binding [3]: binds
B1: 35S-methionine labeled Nse1 (protein, UniProt Q9VMA0 1-235)
chain: MELVKRGFLRACKNHSYLSFELIDDILAPLCANHKTTKPGSKEAIRALVAEINDTISDLGQLLVFIKYPVKAEEYLVYAKTDATPDSVANTGLTAEECQYFSKLLDKIASEEDCHIAWNDAYNDIVLQASSKPLKKSRMQELLQKWIQMGYFMEVTDRIYLGPRSLVELSFYLSSNHADNIKNCTLCKCLVLWDIRCGSCNIQYHRGCIQTYLQRRDICPSCGNLWTTPIRRSIG
modifications: 35S-methionine labeled
